These results are taken from article PMC6978808, “In Situ Structure of an Intact Lipopolysaccharide-Bound Bacterial Surface Layer” (Cell, 2020).

Results are given in words; binding and its absence hold for the method and conditions named.

In this test the target is N-terminal domain of RsaA (RsaANTD) (Caulobacter crescentus) (UniProt P35828). Nature of the test: SEC; gel filtration of purified RsaANTD alone, without LPS or PS (Figure S1D); small particles on cryo-EM grids; both purified.

B1: N-terminal domain of RsaA (RsaANTD) (domain or fragment, Caulobacter crescentus)
chain: AYTTAQLVTAYTNANLGKAPDAATTLTLDAYATQTQTGGLSDAAALTNTLKLVNSTTAVAIQTYQFFTGVAPSAAGLDFLVDSTTNTNDLNDAYYSKFAQENRFINFSINLATGAGAGATAFAAAYTGVSYAQTVATAYDKIIGNAVATAAGVDVAAAVAFLSRQANIDYLTAFVRANTPFTAAADIDLAVKAALIGTILNAATVSGIGGYATATAAMINDLSDGALSTDNAAGVNLFTAYPSSGVSGSEN
notes: S-layer protein RsaA of Caulobacter crescentus (1026 residues), N-terminal domain; the introduction defines RsaANTD as residues 1-249; residues 2-243 are built in the cryo-EM model; Cleavage by TEV protease after Gln would leave Glu-Asn-Leu-Tyr-Phe-Gln; also called inner domain of the S-layer; source: C. crescentus rsaATEV250 strain
As for B1, the binding result was “no binding (condition: without LPS or PS added)”.
